Results as given in article PMC10114587.
These are yes or no findings as the source states them, for the method shown. Binding seen in cells or lysates may run through a third protein. Some entries that bind do so weakly or less than the wild type. Where a sequence is shown, tags or fusion partners need not be part of it.

By UniProt entry, the sequences of proteins in these tests, tags left out.
UniProt P07355: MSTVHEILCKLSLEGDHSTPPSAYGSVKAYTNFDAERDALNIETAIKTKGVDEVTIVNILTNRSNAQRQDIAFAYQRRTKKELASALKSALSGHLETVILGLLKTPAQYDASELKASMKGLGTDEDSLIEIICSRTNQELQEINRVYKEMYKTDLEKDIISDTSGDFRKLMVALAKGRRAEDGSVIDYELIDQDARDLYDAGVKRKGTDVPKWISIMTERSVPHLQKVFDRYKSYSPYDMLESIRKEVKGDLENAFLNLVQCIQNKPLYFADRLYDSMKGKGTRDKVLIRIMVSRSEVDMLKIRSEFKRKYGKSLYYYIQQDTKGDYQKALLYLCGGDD

Molecular target: T1, LOXL4 wt (tagged, transiently expressed, for the confirming immunoprecipitation) (UniProt Q96JB6)
T1 sequence: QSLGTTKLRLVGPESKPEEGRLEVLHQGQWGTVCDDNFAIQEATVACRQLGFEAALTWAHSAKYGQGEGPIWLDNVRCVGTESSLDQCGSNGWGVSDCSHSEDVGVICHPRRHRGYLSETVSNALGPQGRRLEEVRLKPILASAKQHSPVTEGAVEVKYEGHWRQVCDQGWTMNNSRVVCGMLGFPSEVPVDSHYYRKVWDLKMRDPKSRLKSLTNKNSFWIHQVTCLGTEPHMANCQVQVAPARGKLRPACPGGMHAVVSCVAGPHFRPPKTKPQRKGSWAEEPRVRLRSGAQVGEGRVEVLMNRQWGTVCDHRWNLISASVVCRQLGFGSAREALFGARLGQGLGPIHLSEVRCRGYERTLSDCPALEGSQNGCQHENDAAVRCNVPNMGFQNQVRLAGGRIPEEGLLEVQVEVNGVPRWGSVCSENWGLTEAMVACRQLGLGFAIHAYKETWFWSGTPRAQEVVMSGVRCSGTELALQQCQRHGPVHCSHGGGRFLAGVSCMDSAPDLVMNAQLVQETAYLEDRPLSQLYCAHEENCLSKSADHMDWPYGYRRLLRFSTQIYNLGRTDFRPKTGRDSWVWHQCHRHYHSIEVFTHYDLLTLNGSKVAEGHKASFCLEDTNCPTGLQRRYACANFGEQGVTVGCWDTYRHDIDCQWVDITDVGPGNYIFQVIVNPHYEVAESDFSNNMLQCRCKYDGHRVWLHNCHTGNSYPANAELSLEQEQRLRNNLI
Assay: co-IP; immunoprecipitation of transiently expressed tagged constructs (Supplementary Figure S2B); bait and cells not given

binding: binds
Substance: annexin A2 (tagged, transiently expressed, for the confirming immunoprecipitation) (from UniProt P07355 1-339)
